# According to PubChem BioAssay AID1458 (National Center for Advancing Translational Sciences (NCATS), 2008):
# The campaign covered roughly 210,000 compounds. About 5,900 (2.8%) were called active. Not shown: some 5% with an inconclusive outcome. The call rests on the fitted dose curve; in most records, active means well fitted activation curve with a large enough effect; inconclusive means small, poorly fitted or top-dose-only effect; inactive means no such curve, though single readings can be large or run the other way. The list shows a part of the results, in another mix than the full data. Where no call is shown, the source filed none.
# Assay: qHTS Assay for Enhancers of SMN2 Splice Variant Expression; further: nearly all actives have a fitted effect of over 55% in size; on activity change, positive = activation: % of control where 0% means no effect
# Conditions: HEK293 SMN2-luciferase splicing reporter, luminescence, 30-36 h; activity change, positive = activation: at 46.1 µM (top of the series) unless noted
# Summary of the method: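 HEK293 cells carry an SMN2 […]–luciferase reporter in which exon 7 inclusion puts luciferase in frame. Cells were plated 10-12 h before compound addition, then incubated 30-36 h at 37C. ONE-Glo luminescence was read; sodium butyrate at 4.5 mM final served as control.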
# Potency means the concentration at half of the fitted maximal effect.
SMILES,"activity change, positive = activation",Potency
COc1ccc(N(C(C)C(=O)NC2CCCCCC2)S(C)(=O)=O)cc1 (centres undefined),33.6%,–
COc1cc(C(=S)N2CCN(c3ccccc3Cl)CC2)cc(O)c1O,inactive: -71.2%,–
Cc1ccc(/C=C2\SC(=S)N(CCCC(=O)Nc3ccccn3)C2=O)cc1,inactive: -62.4%,–
CCC(=O)N1CCc2cc(Br)cc(S(=O)(=O)NCCN3CCCCC3C)c21 (centres undefined),36.8%,–
CC(=O)Nc1cccc2c1[n+]([O-])c(C)c(C)[n+]2[O-],33.6%,–
COc1ccc(NC(=S)c2ccc(N(C)C)cc2)cc1,–,active: 11.2 µM
N#Cc1cccc(NC(=O)COC(=O)c2ccccc2C(=O)c2ccc(Cl)c([N+](=O)[O-])c2)c1,inactive: -115%,–
CC(C)(C)C1(O)CC(C(F)(F)F)=NN1C(=O)Cc1ccc([N+](=O)[O-])cc1 (centres undefined),inactive: -47%,–
Cc1cc(N2CCN(c3ccc([N+](=O)[O-])c4cccnc34)CC2)c2ccccc2n1,inactive: -66%,–
COc1ccc(NC(=O)CSc2nc3c(c(=O)n2-c2ccc(C)cc2)SCC3)c(OC)c1,-6.82%,–
O=C(CSc1cccs1)Nc1cccc2ccccc12,–,active: 12.6 µM
O=C(Nc1ccccc1)C1CCCCC1,38.4%,–
COc1ccc(CCNc2nc(-c3cccnc3)cs2)cc1OC,inactive: -33.2%,–
CCOC(=O)c1sc(NC(=O)Nc2ccc(F)cc2)nc1C,–,active: 1.26 µM
N#CCSc1nnc(COc2cccc3ccccc23)n1-c1ccccc1,inactive: -55.2%,–
Cc1c(C(=O)Nc2ccc3c(c2)CCC3)cccc1[N+](=O)[O-],99.5%,–
N#Cc1ccc(CN2CCC3(CC2)CCN(C(=O)c2ccncc2)CC3)cc1,inactive: -35.9%,–
Cn1cc(Cl)c(C(=O)OCC(=O)Nc2nc(-c3ccc(Br)cc3)cs2)n1,–,active: 15.8 µM
Cc1occc1C(=O)Nc1cc(=O)n(C)c(=O)n1C,22.8%,–
COC(=O)c1ccc(CSc2nnc(Nc3ccc(C)cc3)s2)o1,34.5%,–
CCN1C(=O)c2cccc3c(NC(=O)c4ccc(OC)c(OC)c4)ccc1c23,78.5%,–
CCOC(=O)CC(=O)Nc1cc(Cl)ccc1O,37.5%,–
CC(C)OC(=O)CCNc1n[nH]c(=O)[nH]c1=O,30.8%,–

# Ordered by heavy-atom count (high to low): some entries from above
SMILES,"activity change, positive = activation",Potency
N#Cc1cccc(NC(=O)COC(=O)c2ccccc2C(=O)c2ccc(Cl)c([N+](=O)[O-])c2)c1,inactive: -115%,–
COc1ccc(NC(=O)CSc2nc3c(c(=O)n2-c2ccc(C)cc2)SCC3)c(OC)c1,-6.82%,–
Cc1cc(N2CCN(c3ccc([N+](=O)[O-])c4cccnc34)CC2)c2ccccc2n1,inactive: -66%,–
N#Cc1ccc(CN2CCC3(CC2)CCN(C(=O)c2ccncc2)CC3)cc1,inactive: -35.9%,–
CCC(=O)N1CCc2cc(Br)cc(S(=O)(=O)NCCN3CCCCC3C)c21 (centres undefined),36.8%,–
Cn1cc(Cl)c(C(=O)OCC(=O)Nc2nc(-c3ccc(Br)cc3)cs2)n1,–,active: 15.8 µM
COc1ccc(N(C(C)C(=O)NC2CCCCCC2)S(C)(=O)=O)cc1 (centres undefined),33.6%,–
COC(=O)c1ccc(CSc2nnc(Nc3ccc(C)cc3)s2)o1,34.5%,–
CCOC(=O)c1sc(NC(=O)Nc2ccc(F)cc2)nc1C,–,active: 1.26 µM
COc1ccc(NC(=S)c2ccc(N(C)C)cc2)cc1,–,active: 11.2 µM
Cc1occc1C(=O)Nc1cc(=O)n(C)c(=O)n1C,22.8%,–
CC(=O)Nc1cccc2c1[n+]([O-])c(C)c(C)[n+]2[O-],33.6%,–
CC(C)OC(=O)CCNc1n[nH]c(=O)[nH]c1=O,30.8%,–
O=C(Nc1ccccc1)C1CCCCC1,38.4%,–

# (continued)

SMILES,"activity change, positive = activation",Potency
CCCCNC(=O)CSc1nccn1Cc1ccccc1,37.3%,–
Cc1cc(C)cc(OCC(=O)Nc2ccc(-c3nc4ccccc4o3)cc2)c1,–,active: 6.31 µM
CNC(=O)c1cc2ncc(C(F)(F)F)cc2s1,41.5%,–
Cc1ccc(/C=C/C(=O)N2CCCC(C)C2)cc1 (centres undefined),–,active: 1.12 µM
COC(=O)Oc1ccc(/C=N/NC(=O)CSCc2ccccc2Br)cc1OC,inactive: -51.5%,–
CCc1ccc(CNc2ccc(N3CCN(C(C)=O)CC3)cc2)cc1,-83%,–
CS(=O)(=O)N1CCc2cc(C(=O)NCCc3ccccc3)ccc21,–,active: 12.6 µM
COc1ccc(N2C(=O)CC(Cc3ccccc3)C2=O)cc1 (centres undefined),38.3%,–
CCOC(=O)c1c(-c2ccc(OC)cc2)csc1NC(=O)CSc1ncnc2sccc12,-49.3%,–
C(=N\Nc1nc(-c2ccccc2)cs1)/c1cccs1,–,active: 7.94 µM
COc1ccc(C2=NN(CN3C(=O)C(=O)c4ccccc43)C(c3ccc(OC)cc3)C2)cc1 (centres undefined),–,active: 10 µM
CC(=O)Nc1nc(N2C(=O)c3ccccc3C2=O)n(-c2ccccc2)n1,25.8%,–
CC1CCN(C(c2ccc(N(C)C)cc2)c2nnnn2C(C)(C)C)CC1 (centres undefined),56.6%,–
O=C(CSc1ncn(-c2ccccc2)n1)N1CCN(c2ccccc2)CC1,31.8%,–
COc1ccc(-c2c(C)nn3c(N4CCC(C(=O)NCCN(C)C)CC4)cc(C)nc23)cc1OC,33.2%,–
O=C(CCc1ccc(S(=O)(=O)N2CCOCC2)cc1)OCc1nc2ccccc2s1,inactive: -42.2%,–
Cc1onc(-c2c(Cl)cccc2Cl)c1C(=O)Nc1ccc2c(c1)OCO2,21.6%,–
CCc1ccc(C(=O)/C=C2\Sc3ccccc3NC2=O)cc1,-33.5%,–
COc1ccc(OC)c(NC(=O)c2cc3ccccc3o2)c1,86.6%,–
CC(Sc1nc2nn(-c3ccccc3)c(=O)c-2c2n1CCCCC2)C(N)=O (centres undefined),39.7%,–
COc1ccccc1NC(=O)NCC(=O)Nc1ccc(F)c(F)c1,30.4%,–
Cc1csc(NC(=O)c2cc3c(C)nn(Cc4ccccc4Cl)c3s2)n1,inactive: -46.9%,–
Cc1ccc(N/C=C(/C#N)c2ccsc2)cc1C,–,active: 12.6 µM

SMILES,"activity change, positive = activation",Potency
CCOC(=O)N1CCN(S(=O)(=O)c2ccc3c(c2)SCC(=O)N3)CC1,inactive: -40.4%,–
c1ccc(Cc2nc(-c3ccccn3)no2)cc1,–,active: 25.1 µM
O=C(c1cc([N+](=O)[O-])cc([N+](=O)[O-])c1)N1CCOCC1,31.4%,–
Cc1ccc(C(=O)Nc2nnc(C3CCCCC3)s2)o1,–,active: 11.2 µM
COc1ccccc1NC(=O)Cc1noc(CN(C)Cc2cccs2)n1,57.5%,–
Cc1ccc2c(CC(=O)Nc3c(C(=O)Nc4cccc(Cl)c4)oc4ccccc34)coc2c1C,32.9%,–
COc1ccc(C2C(=O)c3ccccc3C2=O)cc1OC,65.4%,–
C=CCNC(=O)c1ccccc1NS(=O)(=O)c1ccccc1,35.7%,–
CC(Sc1nncn1C)C(=O)Nc1nnc(-c2ccccc2)s1 (centres undefined),–,active: 14.1 µM
CSc1ccccc1NC(=O)c1cc2ncc(Br)cn2n1,–,active: 3.16 µM
O=C(Nc1ccc2oc(-c3ccc4ccccc4c3)nc2c1)c1ccc2c(c1)OCCO2,inactive: -35.4%,–
O=C(CN1N=C(c2ccccc2)CCC1=O)NCc1ccccc1,-2.38%,–
C=CCn1c(SCC(=O)c2cccs2)nc2sc(CC)cc2c1=O,inactive: -42.6%,–
CCC(=O)c1ccc(CCCCCC(=O)O)s1,35.6%,–
c1ccc2cc3c(NCCN4CCOCC4)ccnc3cc2c1,-73%,–
Cc1ccc(-n2nc(-c3ccc(N)cc3)cc2N)cc1,–,active: 11.2 µM
Brc1ccc(-c2ccc(CNCCSc3nnnn3-c3ccccc3)o2)cc1,inactive: -35.1%,–
CCOC(=O)N1CCC(NC(=O)c2cc(C(=O)Nc3cccc(C(F)(F)F)c3)ccc2CO)CC1,inactive: -51.5%,–
Cc1cc(NC(=O)c2cccnc2)cc(-c2nc3cc(Cl)ccc3o2)c1O,34.9%,–
CCOCCCNC(=O)c1ccc2c(c1)OCO2,–,active: 14.1 µM
Cc1cc(-c2ccc(Cl)cc2)oc(=O)c1NC(=O)c1ccccc1,inactive: -32.3%,–
Cn1c(=O)c(=O)n(C)c2cc(S(=O)(=O)N3CCN(c4ccccc4F)CC3)ccc21,-50.8%,–
CC1SC(=Nc2ccccc2)N(S(=O)(=O)c2ccccc2)C1=O (centres undefined),-1.84%,–

# Single records (already shown). Values in the order: activity change, positive = activation | Potency
# O=C(c1cc([N+](=O)[O-])cc([N+](=O)[O-])c1)N1CCOCC1 is listed with 31.4% | –
# CCOC(=O)N1CCC(NC(=O)c2cc(C(=O)Nc3cccc(C(F)(F)F)c3)ccc2CO)CC1 is listed with inactive: -51.5% | –
